Library screen at single concentrations

Protein sequences, listed by entry. Tags and fused reporters are not part of them. Residues count along the entry.
UniProt P9WPC5, whole entry: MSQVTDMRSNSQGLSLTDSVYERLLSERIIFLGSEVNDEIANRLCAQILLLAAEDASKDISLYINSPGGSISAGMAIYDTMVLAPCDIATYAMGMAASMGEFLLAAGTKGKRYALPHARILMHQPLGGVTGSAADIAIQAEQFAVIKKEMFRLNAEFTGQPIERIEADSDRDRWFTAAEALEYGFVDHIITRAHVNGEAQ
UniProt P9WPC3, whole entry partner: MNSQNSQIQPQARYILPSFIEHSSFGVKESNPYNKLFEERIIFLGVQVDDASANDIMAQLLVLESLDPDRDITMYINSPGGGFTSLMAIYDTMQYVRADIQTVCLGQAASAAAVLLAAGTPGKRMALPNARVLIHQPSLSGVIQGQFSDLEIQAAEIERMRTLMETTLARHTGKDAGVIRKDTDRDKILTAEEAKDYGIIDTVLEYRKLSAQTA
UniProt Q4DA54, 1-478: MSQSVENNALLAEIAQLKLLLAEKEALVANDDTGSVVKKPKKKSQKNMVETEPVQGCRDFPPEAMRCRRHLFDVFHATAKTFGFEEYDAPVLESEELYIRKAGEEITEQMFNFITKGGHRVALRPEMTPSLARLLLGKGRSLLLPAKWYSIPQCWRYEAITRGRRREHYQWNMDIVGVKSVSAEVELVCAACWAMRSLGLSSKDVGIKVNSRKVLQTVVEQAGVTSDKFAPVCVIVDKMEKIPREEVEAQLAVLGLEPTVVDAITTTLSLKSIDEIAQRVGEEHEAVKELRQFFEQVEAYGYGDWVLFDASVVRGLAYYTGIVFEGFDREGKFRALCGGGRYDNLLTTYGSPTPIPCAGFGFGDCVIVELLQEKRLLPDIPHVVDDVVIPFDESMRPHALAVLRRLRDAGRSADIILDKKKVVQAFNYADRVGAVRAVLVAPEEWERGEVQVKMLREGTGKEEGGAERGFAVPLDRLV
UniProt I6X8D2, whole entry: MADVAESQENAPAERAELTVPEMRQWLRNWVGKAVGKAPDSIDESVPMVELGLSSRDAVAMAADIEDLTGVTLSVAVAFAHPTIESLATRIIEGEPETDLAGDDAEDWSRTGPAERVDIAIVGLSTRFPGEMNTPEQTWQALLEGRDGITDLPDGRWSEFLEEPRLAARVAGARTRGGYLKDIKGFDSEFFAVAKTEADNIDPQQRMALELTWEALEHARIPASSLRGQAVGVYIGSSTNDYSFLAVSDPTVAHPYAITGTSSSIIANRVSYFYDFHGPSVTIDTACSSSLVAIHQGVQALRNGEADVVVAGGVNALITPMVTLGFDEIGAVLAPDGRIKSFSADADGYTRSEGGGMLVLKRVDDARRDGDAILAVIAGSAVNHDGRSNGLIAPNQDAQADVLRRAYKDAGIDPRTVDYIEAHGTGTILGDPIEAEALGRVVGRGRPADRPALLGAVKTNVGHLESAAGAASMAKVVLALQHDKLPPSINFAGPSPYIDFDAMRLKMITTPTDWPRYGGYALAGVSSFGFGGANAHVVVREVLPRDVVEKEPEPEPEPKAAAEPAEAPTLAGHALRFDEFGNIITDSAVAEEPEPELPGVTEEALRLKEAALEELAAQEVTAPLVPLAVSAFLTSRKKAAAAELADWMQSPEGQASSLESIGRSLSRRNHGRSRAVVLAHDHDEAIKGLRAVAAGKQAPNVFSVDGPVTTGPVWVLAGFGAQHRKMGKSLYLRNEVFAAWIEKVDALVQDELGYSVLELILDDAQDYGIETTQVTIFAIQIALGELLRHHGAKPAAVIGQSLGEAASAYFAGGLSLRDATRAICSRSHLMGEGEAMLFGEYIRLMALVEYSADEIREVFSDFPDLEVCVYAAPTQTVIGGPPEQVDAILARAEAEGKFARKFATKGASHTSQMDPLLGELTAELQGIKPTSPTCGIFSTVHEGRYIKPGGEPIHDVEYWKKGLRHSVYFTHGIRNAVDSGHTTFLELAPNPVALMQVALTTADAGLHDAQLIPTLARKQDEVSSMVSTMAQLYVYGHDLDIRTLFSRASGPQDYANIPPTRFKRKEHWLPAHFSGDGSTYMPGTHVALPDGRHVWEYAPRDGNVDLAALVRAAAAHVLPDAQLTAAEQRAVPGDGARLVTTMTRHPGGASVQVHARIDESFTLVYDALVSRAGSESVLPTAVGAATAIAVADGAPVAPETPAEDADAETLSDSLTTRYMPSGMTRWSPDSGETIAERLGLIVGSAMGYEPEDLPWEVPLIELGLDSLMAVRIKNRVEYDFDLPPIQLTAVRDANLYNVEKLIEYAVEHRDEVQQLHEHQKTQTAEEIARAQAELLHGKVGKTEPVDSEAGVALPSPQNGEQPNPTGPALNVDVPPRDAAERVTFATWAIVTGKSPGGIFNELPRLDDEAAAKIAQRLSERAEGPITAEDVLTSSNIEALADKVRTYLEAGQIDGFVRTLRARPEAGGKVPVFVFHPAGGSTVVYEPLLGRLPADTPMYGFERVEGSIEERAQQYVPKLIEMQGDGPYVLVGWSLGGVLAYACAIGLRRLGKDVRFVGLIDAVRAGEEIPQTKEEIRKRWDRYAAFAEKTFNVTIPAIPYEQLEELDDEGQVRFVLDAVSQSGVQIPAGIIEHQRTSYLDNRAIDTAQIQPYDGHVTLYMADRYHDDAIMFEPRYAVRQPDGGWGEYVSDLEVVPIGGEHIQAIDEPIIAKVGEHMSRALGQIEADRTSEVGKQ
UniProt Q8IDJ8, 1-583: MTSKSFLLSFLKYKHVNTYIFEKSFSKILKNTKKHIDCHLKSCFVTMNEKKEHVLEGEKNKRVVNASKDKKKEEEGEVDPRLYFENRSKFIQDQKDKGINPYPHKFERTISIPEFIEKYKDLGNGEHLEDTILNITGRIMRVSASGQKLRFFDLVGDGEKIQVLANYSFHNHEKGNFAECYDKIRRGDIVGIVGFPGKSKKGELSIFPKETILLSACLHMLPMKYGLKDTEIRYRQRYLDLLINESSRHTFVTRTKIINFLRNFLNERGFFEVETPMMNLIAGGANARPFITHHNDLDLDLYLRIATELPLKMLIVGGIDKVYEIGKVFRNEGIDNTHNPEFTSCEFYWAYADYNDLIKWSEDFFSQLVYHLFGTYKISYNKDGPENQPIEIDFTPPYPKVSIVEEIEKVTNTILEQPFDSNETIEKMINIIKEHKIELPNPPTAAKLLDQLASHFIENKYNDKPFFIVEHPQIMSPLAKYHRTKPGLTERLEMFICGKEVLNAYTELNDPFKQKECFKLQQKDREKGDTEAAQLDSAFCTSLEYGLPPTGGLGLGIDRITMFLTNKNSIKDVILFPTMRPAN

Each number is a percent effect as filed.
How 0% and 100% were set is not recorded. Most values in the screen are low, and negative values occur.
The compounds are a random part of those screened.
A dash means the value is not listed here; it may have been measured.

ClpP1P2: 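Protease assay of ClpP1P2, read by the AMC dye that it sets free. Target: ClpP1P2, Mycobacterium tuberculosis (UniProt P9WPC5 and UniProt P9WPC3). Concentration: 50 µM. Direction is inferred from only a few compounds that gave an IC50; most scored high, so higher reads as stronger inhibition. Most other retested compounds had strongly negative values. Size under these conditions: about 69,000 compounds, about 10 of them at 50% or above in at least one test.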
Toxoplasma: 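Assay of Toxoplasma gondii numbers, read through their beta-galactosidase reporter with a colour substrate. Compounds at 10 µM. Higher reads as fewer parasites (inferred from which compounds were picked for retests). About 67,000 compounds were tested under these conditions; 0.38% (about 260) showed 50% or more at least once.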
TcHisRS: 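Enzyme assay of histidyl-tRNA synthetase; the read-out is not stated. Target: Histidine-tRNA ligase, Trypanosoma cruzi CL Brener (UniProt Q4DA54). Tested at 30 µM. Direction is inferred from retests: higher values go with stronger inhibition. About 69,000 compounds were tested under these conditions; 0.045% (about 31) showed 50% or more at least once.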
Pks13 thioesterase: 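Enzyme assay of the thioesterase domain of polyketide synthase 13; the read-out is not stated. Target: Polyketide synthase Pks13, Mycobacterium tuberculosis (UniProt I6X8D2). Tested at 30 µM. The record gives no direction; the compounds picked for IC50 retests had high values, so higher reads as stronger inhibition. Size under these conditions: about 67,000 compounds, about 300 of them at 50% or above in at least one test.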
PfKRS1: 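Lysine-tRNA ligase, Plasmodium falciparum 3D7 (UniProt Q8IDJ8). Enzyme assay of the cytosolic lysyl-tRNA synthetase in 384-well plates, read by luminescence. Compounds at 30 µM. Higher reads as stronger inhibition, judged from the few compounds that gave an IC50. About 69,000 compounds were tested under these conditions; 0.071% (about 49) showed 50% or more at least once.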

structure	ClpP1P2	Toxoplasma	TcHisRS	Pks13 thioesterase	PfKRS1
CN1CCN(Cc2cnc3n2CCN(C(=O)c2cscn2)C3)CC1	-7.114	-12.13	6.897	-22.96	0.1858
COc1cc2c(cc1CN1CCn3c(CO)nnc3C1)CCC2	-13.21	-	5.224	-6.998	1.851
c1ccc(Cn2cccn2)c(CN2CCC3(CCCNC3)C2)c1 (centres unmarked)	-1.153	-4.542	0.5025	-	2.415
CCC(=O)N1CCc2onc(CNS(C)(=O)=O)c2C1	-6.393	9.788	2.513	-51.21	-1.886
COc1ccc(C2Nc3ccccc3NC3=C2C(=O)NC3)cc1OC (centres unmarked)	-9.678	14.39	0.8	-7.871	4.397
Cc1ncsc1CN1Cc2cnn(C)c2C(COCC2CC2)C1 (centres unmarked)	0.2263	-	6.452	-13.43	2.445
CC(C)OCc1ncn2c1CN(CCO)CCC2.O=C(O)C(F)(F)F	-	-0.6575	-	-	-
Cc1cc(C)n(CC2CN(CCOc3ccc(C#N)cc3)CCO2)n1 (centres unmarked)	-17.9	-6.322	6.936	-3.288	2.765
OC(CNCc1nnc2ccccn12)c1ccc2c(c1)OCO2 (centres unmarked)	1.82	19.59	17.39	-3.29	1.633
COc1ccc(CC(=O)N2Cc3nccn3CC(CN(C)C)C2)cc1 (centres unmarked)	9.672	-	6.03	7.694	-1.709
Clc1snnc1CN1CCCC(Cn2cncn2)C1 (centres unmarked)	9.15	-	3.759	1.986	11.34
CN(C)c1cc(C(=O)NCCc2n[nH]c(=O)[nH]2)ccn1	-3.919	0.7541	3.261	-15.92	2.31
O=C(c1cccnc1SC/C=C/c1ccccc1)N1CC[C@H](O)C1	-3.418	15.49	6.557	-22.87	-0.2067
CN(C)c1nc2n(c(=O)n1)CCN2C(=O)Nc1cccc(Cl)c1	-11.91	18.48	7.522	-2.36	5.569
CCc1noc(CN2CCN(C(=O)c3ccccn3)CC2)n1	-3.707	3.127	-1.681	-20.02	9.185
Cc1ncsc1C(=O)NCCn1nc2ccccn2c1=O	6.06	-0.1077	2.682	-15.49	5.232
CN(C)S(=O)(=O)N1C[C@H]2CCC[C@@]2(COCC2CC2)C1	0.5359	-	2.941	-3.164	5.932
O=C(O)C(F)(F)F.O=C(c1cscn1)N1CCc2ncc(CN3CCCC3)n2CC1	-	21.05	-	-	-
Cc1ncc(CNC(=O)Cc2cccs2)c(C2CCCN2C)n1 (centres unmarked)	4.131	18.71	5.556	16.8	4.048
CCc1nnc2n1CC(CNCc1nc(-c3ccsc3)no1)CC2 (centres unmarked)	6.319	-5.128	9.524	-5.629	1.731
O=S(=O)(NCCSc1nncn1C1CC1)c1ccccc1	-2.122	2.092	-6.341	-9.387	1.743
O=C1CCC2(CCCN(C(=O)c3cnccn3)CC2)N1 (centres unmarked)	-2.046	-16.28	6.796	-19.61	5.048
COCCCNC(=O)NCc1ccc(N2CCOC(C)C2)nc1 (centres unmarked)	16.38	3.599	4.04	-10.84	-0.6721
CN(C)CC1(O)CCN(C(=O)Cc2ccc3ccccc3c2)C1 (centres unmarked)	-15.19	-9.056	0.8571	1.231	0.03377
CC(C)N1CCC2(CCNCC2)C1=O.Cl	-	-16.46	-	-	-
CC(NC(=O)CCC(=O)c1cccs1)c1nnc2n1CCC2 (centres unmarked)	7.759	-30.03	0	13.99	6.108
Cc1ccc(-c2ncc(CN3CCN(C(=O)N(C)C)CC3)s2)o1	-1.252	1.15	6.383	-13.6	2.344
CC(NC(=O)C1CCN(S(N)(=O)=O)CC1)c1cccc(OC(F)F)c1 (centres unmarked)	7.505	-2.456	4.372	-19.07	4.231
COCCc1noc(CN2CCCC2c2c(C)nn(C)c2OC)n1 (centres unmarked)	-15.12	-35.09	-0.5634	-6.67	2.321
Cc1nnc2n1CCN(C(=O)c1cc(C)n(-c3ccccc3)c1C)C2	2.784	7.984	4.624	-3.744	1.283
COc1cccc2c1OCCCN(Cc1c[nH]nc1C(=O)O)C2	3.007	-4.637	0.4926	-32.76	6.257
O=C([C@@H]1CCO[C@@H]2CCN(CC3CCOCC3)C[C@H]21)N1CCCO1	-6.636	-	-1.22	27.34	-0.3269
[H][C@@]12CS(=O)(=O)C[C@]1([H])N(Cc1cnn(-c3ccccc3OC)c1)CCN2C	-	11.57	-	-	-
O=C(c1ncc[nH]1)N1CCC(n2cc(-c3ccccn3)nn2)CC1	-6.726	-12.38	12.35	-1.755	0.4412

The values are deposited in ChEMBL (CHEMBL3988442, “University of Dundee, Small-Polar-MMV Screening Library” (2021)).